Values quoted from earlier work in patent US11123340B2, “Small-molecule UT-A-selective urea transport inhibitors” (The Regents of the University of California, priority 2014, dated 2021).
Some entries share one result that the patent states for a list of compounds. For at least one compound, name, drawing or mass did not settle the structure. Some compounds share one range, which may span the group rather than tell each member.

Test system: UT
Conditions: literature; cited from earlier work

**Q.** Which concentration exhibiting activity does the source give for `NC(N)=S` [thiourea] here?
**A.** 50 to 100 mM
